# From PubChem BioAssay AID445 (National Center for Advancing Translational Sciences (NCATS), 2006)
# The list shows a part of the results. The main result of the screen is listed elsewhere. These columns were measured beside it and carry no call. Most of these compounds were active or inconclusive in the main read-out, so they are no random draw. Words in brackets tell the shape of the fitted curve; partial curves, single points and poor fits give uncertain potencies.
# Experiment: IkB Signaling
# Conditions: ABC-DLBCL IkBa-CBG/CBR dual luciferase ratio (green luciferase fused to IkBa over red control in OCI-Ly3 lymphoma cells), 4 h; measured here: control luc red channel unless noted
# Method in brief: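 Curves were fitted separately to fusion (green), unfused (red) and ratio luminescence, then classed by r2, magnitude and activity. Cells: OCI-Ly3, 4 h compound plus doxycycline at 37C; 10 uM MG-132 defined full response.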
row,SMILES,AC50
1,CCC1CCCCN1C(=O)CSc1nc(-c2ccc(OC)cc2)cc(C(F)(F)F)n1 (stereo not drawn),"31.6 µM [falling, single point]"
2,CCn1cc2nc(SCC(=O)Nc3cccc(Cl)c3C)n(Cc3ccc(Cl)cc3)c(=O)c2n1,"5.01 µM [falling, full curve]"
3,O=C(C1CC1)N1CCc2cc(Br)cc(S(=O)(=O)Nc3ccc(C(F)(F)F)cc3)c21,"3.16 µM [falling, full curve]"
4,COc1ccc(NC(=O)C(=O)NCCc2csc3nc(-c4ccccc4C)nn23)cc1,"39.8 µM [falling, single point]"
5,CCOc1ccc(-n2nc3ccc(NC(=O)COc4ccccc4C)cc3n2)cc1,"39.8 µM [falling, single point]"
6,COc1ccc(S(=O)(=O)N(CCc2ccccc2)CC(=O)NCc2ccc(C)cc2)cc1,"6.31 µM [falling, partial curve]"
7,CCCC(=O)Nc1nnc(S(=O)(=O)N(C)c2ccccc2)s1,"0.316 µM [rising, full curve]"
8,COc1ccccc1CCNC(=O)C1CCN(c2nc3ccccc3nc2C(F)(F)F)CC1,"0.02 µM [rising, full curve, poor fit]"
9,C=CCn1c(CCC(=O)O)ccc1-c1ccc(OC)cc1,"25.1 µM [falling, partial curve]"
10,COC(=O)c1ccccc1NC(=O)CSc1c2c(nc3ccc(Cl)cc13)CCCC2,"10 µM [falling, partial curve]"
11,Cc1cc(C)c(S(=O)(=O)Nc2ccc(-c3ccc(N4CCCCC4)nn3)cc2)cc1C,"3.16 µM [falling, full curve]"
12,O=C(NCC(c1cccnc1)N1CCN(Cc2ccccc2)CC1)C(=O)Nc1ccc(F)cc1 (stereo not drawn),"1.58 µM [rising, partial curve]"
13,CCc1ccc(S(=O)(=O)Nc2ccc3oc(C)c(C(=O)OCCOC)c3c2)cc1,"31.6 µM [falling, single point]"
14,Cc1cccc(NC(=O)c2cc3c(C)nn(-c4ccccc4)c3s2)c1,"20 µM [falling, partial curve]"
15,O=C(NCc1ccc2c(c1)CCN2C(=O)c1ccncc1)c1cccc(F)c1,"31.6 µM [falling, single point]"
16,O=C1CN(c2nc3ccccc3n3cnnc23)CC(=O)N1CCc1ccccc1,"15.8 µM [falling, partial curve]"
17,CCOC(=O)c1[nH]c(C)c(C(=O)NCc2ccccc2Cl)c1C,"15.8 µM [falling, partial curve]"
18,Nc1nc2ccccc2n1C(=O)CCc1ccccc1,"10 µM [falling, partial curve]"
19,COc1ccc(NC(=O)c2ccc(-c3nc(CSc4ccccc4)c(C)o3)cc2)c(OC)c1,"10 µM [falling, partial curve]"
20,CCCCN(c1ccccc1)S(=O)(=O)c1cc2c3c(c1)C(C)C(=O)N3CCC2 (stereo not drawn),"15.8 µM [falling, partial curve]"
21,CCN1C(=O)c2ccccc2S(=O)c2ccc(C(=O)N3CCN(c4cccc(Cl)c4)CC3)cc21 (stereo not drawn),"31.6 µM [falling, single point]"

row,SMILES,AC50
1,COCCn1c(=S)[nH]c2cc(C(=O)N3CCc4ccccc43)ccc2c1=O,"3.98 µM [falling, partial curve]"
2,COC(=O)c1cc(NC(=O)CCc2c(C)nc3nc(C)nn3c2C)cc(C(=O)OC)c1,"15.8 µM [falling, partial curve]"
3,CCOC(=O)c1ccc(NC(=O)c2cc3ccccc3o2)cc1,"0.1 µM [falling, full curve]"
4,O=C(Cc1ccc(F)cc1)NCCc1csc2nc(-c3ccc(Cl)cc3)nn12,"39.8 µM [falling, single point]"
5,Cc1cccc(CC(=O)Nc2cccc(-c3cn4cccnc4n3)c2)c1,"39.8 µM [falling, partial curve, poor fit]"
6,COc1ccc(C(=O)c2no[n+]([O-])c2C(=O)c2ccc(OC)cc2)cc1,"6.31 µM [falling, full curve]"
7,Cc1ccc(CNC(=O)CCCn2nc(C)n3c(cc4sccc43)c2=O)cc1,"0.251 µM [rising, full curve, poor fit]"
8,Cc1ccc(C(=O)CSc2nnc(-c3ccco3)n2CC2CCCO2)cc1 (stereo not drawn),"31.6 µM [falling, single point]"
9,CCOC(=O)c1cccc(NC(=O)NC2COc3ccccc3C2)c1 (stereo not drawn),"0.0398 µM [rising, full curve, poor fit]"
10,COc1cc(NC(=O)C2CCN(S(=O)(=O)c3c(C)noc3/C=C/c3c(C)cc(C)cc3C)CC2)cc(OC)c1,"39.8 µM [falling, single point]"
11,COc1ccc(OC)c(CNc2ncc(-c3ccc(Cl)cc3)n2C)c1,"10 µM [falling, partial curve]"
12,Cc1cccc(C)c1NC(=O)c1cc2sccc2n1Cc1ccc(F)cc1,"3.98 µM [rising, partial curve]"
13,Cc1ccccc1CN1C(=O)c2ccccc2Sc2ccc(C(=O)NCCCN3CCOCC3)cc21,"15.8 µM [falling, partial curve]"
14,Cc1ccc(Sc2c(C)nn(-c3ccccc3)c2OC(=O)CC(C)C)cc1,"3.98 µM [falling, partial curve]"
15,CC(=O)c1ccc(S(=O)(=O)Nc2cccc(-c3ccc(N4CCCC4)nn3)c2)cc1,"25.1 µM [falling, partial curve, poor fit]"
16,CCOc1ccc(C2c3[nH]c4ccccc4c3CCN2C(=O)CCC2CCCC2)cc1 (stereo not drawn),"0.794 µM [falling, full curve]"
17,O=c1cc(-c2ccccc2)nc(SCc2nc(-c3cccc(C(F)(F)F)c3)no2)[nH]1,"39.8 µM [falling, partial curve]"
18,CCN(CCCNC(=O)CN1N=C(c2ccc(C)cc2)CCC1=O)c1ccccc1,"31.6 µM [falling, single point]"
19,CCCCN(CC)C(=O)Cn1cc2c(n1)-c1c(oc(C(=O)N3CCCC3)c1C)CC2,"31.6 µM [falling, single point]"
20,Cc1c(C#N)c2ccccc2n1CC(=O)NCCc1c[nH]c2ccccc12,"20 µM [falling, partial curve]"
21,COC(=O)COc1ccc(S(=O)(=O)Nc2ccc3c(c2)OCO3)cc1Cl,"15.8 µM [falling, partial curve]"

# Of the compounds above, these have a furan ring, fused or not:
row,SMILES,AC50
13,CCc1ccc(S(=O)(=O)Nc2ccc3oc(C)c(C(=O)OCCOC)c3c2)cc1,"31.6 µM [falling, single point]"
3,CCOC(=O)c1ccc(NC(=O)c2cc3ccccc3o2)cc1,"0.1 µM [falling, full curve]"
8,Cc1ccc(C(=O)CSc2nnc(-c3ccco3)n2CC2CCCO2)cc1 (stereo not drawn),"31.6 µM [falling, single point]"
19,CCCCN(CC)C(=O)Cn1cc2c(n1)-c1c(oc(C(=O)N3CCCC3)c1C)CC2,"31.6 µM [falling, single point]"

# Later entries.

row,SMILES,AC50
1,COc1ccc(CNC(=O)C2CCN(c3nnc(C)c4c(C)n(-c5ccc(C)cc5)nc34)CC2)cc1,"20 µM [falling, partial curve]"
2,Cc1ccc(-c2nn3c(C)nnc3c3ccccc23)cc1S(=O)(=O)NC(C)(C)CO,"3.16 µM [rising, full curve] [measured here: IkB-luc green channel]"
3,COc1ccc(OC)c(-c2cc(C(=O)NCc3ccc(Cl)cc3)no2)c1,"3.98 µM [rising, partial curve, poor fit]"
4,N#C/C(=C\c1ccc(O)c(O)c1)C(N)=O,"39.8 µM [falling, partial curve]"
5,CCOc1ccc(N(C)S(=O)(=O)c2cc(-c3cnc(C)o3)ccc2OC)cc1,"31.6 µM [falling, single point]"
6,COc1ccc(/C=C/C(=O)Nc2cccc(F)c2)cc1,"7.94 µM [falling, partial curve]"
7,CC1CCCN(c2ncnc3c2nnn3C)C1 (stereo not drawn),"20 µM [rising, single point]"
8,CCCOC(=O)c1cccc(Nc2nc(C(=O)OCC)nc3ccccc23)c1,"12.6 µM [falling, partial curve]"
9,CCC1CN(C(=O)N2CCC(C(=O)NCc3ccccc3F)CC2)c2ccccc2O1 (stereo not drawn),"0.0126 µM [rising, full curve, poor fit]"
10,Cc1ccc(C=Nc2ccc(N(C)C)cc2)o1,"0.251 µM [falling, full curve]"
11,Cc1ccc(NC(=O)c2c(C)oc3ncnc(N4CCCCC4)c23)c(C)c1,"12.6 µM [falling, partial curve]"
12,CC(Oc1ccccc1F)C(=O)NCC1(N2CCOCC2)CCCCC1 (stereo not drawn),"31.6 µM [falling, single point]"
13,Cc1ccc(C)c(Cn2nnc3c(=O)[nH]c(C4CCCN(C(=O)C5CCCCC5)C4)nc32)c1 (stereo not drawn),"20 µM [falling, single point]"
14,CC(C)CN(CC(C)C)c1nnc(NC(=O)Nc2cccc(C(F)(F)F)c2)s1,"25.1 µM [falling, partial curve]"
15,COc1ccc(OCC(=O)Nc2ccc3c(c2)N(C)C(=O)c2ccccc2S3)cc1,"20 µM [falling, partial curve]"
16,COc1ccc(-c2cc(C(=O)Nc3c(C(=O)c4ccc(C)c(F)c4)oc4ccccc34)no2)cc1,"3.98 µM [rising, full curve, poor fit]"
17,COC(=O)CSc1nnc(-c2cccc(O)c2)o1,"3.16 µM [falling, partial curve]"
18,CCn1c(SCC(=O)c2cc(OC)ccc2OC)nnc1C1CC1,"39.8 µM [rising, single point] [measured here: IkB-luc green channel]"
19,COc1ccc(C(C)=O)cc1CSc1nc(NCc2ccc(Cl)cc2)c2ccccc2n1,"1.26 µM [rising, full curve, poor fit]"
20,CC1=C(C(=O)Nc2ccc(C)cc2C)C(c2cc(Br)ccc2F)n2ncc(C(=O)Nc3ccc(C)cc3)c2N1 (stereo not drawn),"25.1 µM [falling, single point]"
21,CCCn1c(CNc2ccccc2O)nc2ccccc21,"5.01 µM [falling, partial curve]"
